Laboratory results reported in the supplement of paper PMC7666118.
This is one part of the list.

Protein sequences, listed by entry. Tags and fused reporters are not part of them. Lines headed by an entry give the natural chain unless they say otherwise; changes in a name come on top.
UniProt P55036: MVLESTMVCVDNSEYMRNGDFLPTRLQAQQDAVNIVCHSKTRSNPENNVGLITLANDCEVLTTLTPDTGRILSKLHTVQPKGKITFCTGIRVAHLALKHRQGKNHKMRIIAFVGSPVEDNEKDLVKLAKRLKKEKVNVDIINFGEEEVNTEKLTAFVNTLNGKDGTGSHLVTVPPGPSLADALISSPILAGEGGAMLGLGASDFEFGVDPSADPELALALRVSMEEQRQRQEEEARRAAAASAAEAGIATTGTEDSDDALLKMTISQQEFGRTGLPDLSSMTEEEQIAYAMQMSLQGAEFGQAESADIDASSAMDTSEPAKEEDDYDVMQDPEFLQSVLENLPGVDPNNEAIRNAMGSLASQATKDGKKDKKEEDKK
UniProt Q5VTL8: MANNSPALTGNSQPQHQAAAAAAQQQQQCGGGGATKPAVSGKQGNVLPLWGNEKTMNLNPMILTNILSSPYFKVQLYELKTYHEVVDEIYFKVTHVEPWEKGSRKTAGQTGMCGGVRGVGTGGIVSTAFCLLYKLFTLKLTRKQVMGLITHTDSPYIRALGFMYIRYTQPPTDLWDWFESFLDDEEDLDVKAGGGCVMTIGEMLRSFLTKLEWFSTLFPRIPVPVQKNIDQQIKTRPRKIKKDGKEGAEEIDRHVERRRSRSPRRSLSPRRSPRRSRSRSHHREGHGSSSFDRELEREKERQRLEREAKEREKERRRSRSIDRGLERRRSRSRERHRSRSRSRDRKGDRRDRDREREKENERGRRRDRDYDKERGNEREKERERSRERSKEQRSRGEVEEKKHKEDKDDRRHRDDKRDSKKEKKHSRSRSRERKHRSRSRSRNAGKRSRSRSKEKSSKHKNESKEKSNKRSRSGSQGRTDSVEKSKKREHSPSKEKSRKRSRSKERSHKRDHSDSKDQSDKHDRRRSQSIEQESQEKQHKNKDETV
UniProt P28062: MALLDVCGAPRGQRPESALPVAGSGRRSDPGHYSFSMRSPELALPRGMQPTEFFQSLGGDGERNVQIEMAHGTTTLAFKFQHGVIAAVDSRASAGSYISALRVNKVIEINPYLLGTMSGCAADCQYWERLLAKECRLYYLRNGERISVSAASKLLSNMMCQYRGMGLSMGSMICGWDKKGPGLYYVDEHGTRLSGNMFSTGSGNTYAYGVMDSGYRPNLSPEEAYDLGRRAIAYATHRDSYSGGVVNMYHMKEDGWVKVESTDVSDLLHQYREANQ
UniProt O15355: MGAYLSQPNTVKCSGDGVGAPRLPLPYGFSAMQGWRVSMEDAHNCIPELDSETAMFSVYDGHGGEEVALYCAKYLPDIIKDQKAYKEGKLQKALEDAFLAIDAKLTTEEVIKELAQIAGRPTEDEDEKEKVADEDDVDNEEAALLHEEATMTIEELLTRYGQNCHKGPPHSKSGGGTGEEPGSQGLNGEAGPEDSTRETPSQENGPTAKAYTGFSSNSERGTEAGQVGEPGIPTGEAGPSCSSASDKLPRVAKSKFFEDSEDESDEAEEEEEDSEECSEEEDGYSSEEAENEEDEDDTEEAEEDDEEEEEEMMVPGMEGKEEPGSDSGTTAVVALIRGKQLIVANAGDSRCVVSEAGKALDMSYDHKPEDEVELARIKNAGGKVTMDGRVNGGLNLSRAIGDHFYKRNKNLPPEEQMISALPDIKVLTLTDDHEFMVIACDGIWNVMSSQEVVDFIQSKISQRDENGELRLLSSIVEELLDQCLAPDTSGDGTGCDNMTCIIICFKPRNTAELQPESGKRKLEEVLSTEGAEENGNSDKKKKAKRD
UniProt P18433: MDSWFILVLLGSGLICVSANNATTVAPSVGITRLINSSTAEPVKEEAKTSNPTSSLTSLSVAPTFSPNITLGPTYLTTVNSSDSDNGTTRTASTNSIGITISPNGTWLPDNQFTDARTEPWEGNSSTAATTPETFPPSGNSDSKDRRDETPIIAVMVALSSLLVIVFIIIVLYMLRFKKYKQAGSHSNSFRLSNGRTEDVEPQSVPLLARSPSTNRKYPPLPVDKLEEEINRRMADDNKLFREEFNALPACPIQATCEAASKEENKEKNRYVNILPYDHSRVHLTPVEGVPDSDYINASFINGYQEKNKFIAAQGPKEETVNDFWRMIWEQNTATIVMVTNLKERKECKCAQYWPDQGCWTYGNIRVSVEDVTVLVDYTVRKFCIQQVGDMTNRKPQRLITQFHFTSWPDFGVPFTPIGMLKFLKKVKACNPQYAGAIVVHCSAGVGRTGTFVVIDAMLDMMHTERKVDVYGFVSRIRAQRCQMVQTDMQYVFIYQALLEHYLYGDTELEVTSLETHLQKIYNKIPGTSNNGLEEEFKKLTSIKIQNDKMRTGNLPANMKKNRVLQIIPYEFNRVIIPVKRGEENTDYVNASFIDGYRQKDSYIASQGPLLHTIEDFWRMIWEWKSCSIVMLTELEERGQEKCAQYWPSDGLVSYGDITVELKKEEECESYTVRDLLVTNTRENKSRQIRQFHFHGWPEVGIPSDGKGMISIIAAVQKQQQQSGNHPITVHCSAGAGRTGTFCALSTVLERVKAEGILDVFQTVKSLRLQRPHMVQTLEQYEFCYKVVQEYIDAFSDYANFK
UniProt Q9HCU5: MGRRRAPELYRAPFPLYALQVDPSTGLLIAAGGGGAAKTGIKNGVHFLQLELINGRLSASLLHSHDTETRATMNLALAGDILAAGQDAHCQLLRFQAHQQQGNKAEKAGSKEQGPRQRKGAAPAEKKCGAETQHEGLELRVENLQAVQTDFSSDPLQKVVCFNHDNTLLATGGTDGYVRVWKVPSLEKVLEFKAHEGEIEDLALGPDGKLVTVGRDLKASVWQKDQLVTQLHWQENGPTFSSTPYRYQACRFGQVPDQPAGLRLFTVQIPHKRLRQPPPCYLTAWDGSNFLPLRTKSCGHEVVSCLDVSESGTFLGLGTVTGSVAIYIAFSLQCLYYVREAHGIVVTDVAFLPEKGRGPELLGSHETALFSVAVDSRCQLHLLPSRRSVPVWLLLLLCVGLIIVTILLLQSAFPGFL
UniProt Q9BZL6: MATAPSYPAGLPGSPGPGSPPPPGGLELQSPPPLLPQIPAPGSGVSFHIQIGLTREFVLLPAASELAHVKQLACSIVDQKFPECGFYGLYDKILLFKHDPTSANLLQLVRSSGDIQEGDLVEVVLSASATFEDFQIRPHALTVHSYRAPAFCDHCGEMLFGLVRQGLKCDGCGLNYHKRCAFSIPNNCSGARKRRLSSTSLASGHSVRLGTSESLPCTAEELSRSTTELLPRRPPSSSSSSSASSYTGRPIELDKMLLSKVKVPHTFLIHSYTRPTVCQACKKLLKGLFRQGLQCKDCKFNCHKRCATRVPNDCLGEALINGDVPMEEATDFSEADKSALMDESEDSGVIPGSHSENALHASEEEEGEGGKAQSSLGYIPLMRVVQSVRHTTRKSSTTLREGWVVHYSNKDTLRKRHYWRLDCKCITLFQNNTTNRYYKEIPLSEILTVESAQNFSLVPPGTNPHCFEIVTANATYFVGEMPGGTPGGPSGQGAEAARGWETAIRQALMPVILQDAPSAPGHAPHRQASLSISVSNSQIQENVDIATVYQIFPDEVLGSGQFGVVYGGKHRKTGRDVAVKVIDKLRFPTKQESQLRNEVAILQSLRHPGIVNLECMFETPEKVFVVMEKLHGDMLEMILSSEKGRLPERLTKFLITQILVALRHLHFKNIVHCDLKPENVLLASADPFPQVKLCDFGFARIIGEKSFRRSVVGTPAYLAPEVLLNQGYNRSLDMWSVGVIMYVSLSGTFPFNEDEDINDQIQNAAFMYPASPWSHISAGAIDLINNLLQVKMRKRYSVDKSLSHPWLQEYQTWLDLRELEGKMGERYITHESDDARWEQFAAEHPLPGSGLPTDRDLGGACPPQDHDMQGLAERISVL
UniProt P60510: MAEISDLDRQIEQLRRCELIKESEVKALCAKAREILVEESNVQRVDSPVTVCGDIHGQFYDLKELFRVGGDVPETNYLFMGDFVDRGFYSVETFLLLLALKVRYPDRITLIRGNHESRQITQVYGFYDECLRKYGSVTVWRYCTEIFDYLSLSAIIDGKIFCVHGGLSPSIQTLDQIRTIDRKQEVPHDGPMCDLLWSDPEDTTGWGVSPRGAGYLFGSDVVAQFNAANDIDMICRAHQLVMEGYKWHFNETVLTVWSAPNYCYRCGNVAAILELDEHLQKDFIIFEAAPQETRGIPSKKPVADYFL
UniProt P05771, whole entry, looked up: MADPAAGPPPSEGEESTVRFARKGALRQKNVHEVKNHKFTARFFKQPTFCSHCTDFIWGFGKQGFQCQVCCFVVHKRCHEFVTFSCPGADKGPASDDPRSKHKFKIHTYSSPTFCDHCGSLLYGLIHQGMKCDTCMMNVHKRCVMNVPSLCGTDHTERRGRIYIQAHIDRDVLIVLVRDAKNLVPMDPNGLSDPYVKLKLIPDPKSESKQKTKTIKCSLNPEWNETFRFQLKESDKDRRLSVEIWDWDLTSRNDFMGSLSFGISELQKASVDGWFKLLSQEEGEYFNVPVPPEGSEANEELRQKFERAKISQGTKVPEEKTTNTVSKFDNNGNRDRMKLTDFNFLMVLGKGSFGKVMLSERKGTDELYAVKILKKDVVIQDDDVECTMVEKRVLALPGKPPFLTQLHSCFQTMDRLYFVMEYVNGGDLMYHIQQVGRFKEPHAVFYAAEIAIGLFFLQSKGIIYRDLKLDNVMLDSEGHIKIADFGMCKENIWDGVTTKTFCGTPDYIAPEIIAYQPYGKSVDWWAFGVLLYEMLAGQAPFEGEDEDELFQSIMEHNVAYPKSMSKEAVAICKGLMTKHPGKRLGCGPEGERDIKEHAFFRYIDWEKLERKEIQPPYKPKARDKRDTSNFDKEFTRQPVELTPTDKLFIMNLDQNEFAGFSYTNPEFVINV
UniProt O75569: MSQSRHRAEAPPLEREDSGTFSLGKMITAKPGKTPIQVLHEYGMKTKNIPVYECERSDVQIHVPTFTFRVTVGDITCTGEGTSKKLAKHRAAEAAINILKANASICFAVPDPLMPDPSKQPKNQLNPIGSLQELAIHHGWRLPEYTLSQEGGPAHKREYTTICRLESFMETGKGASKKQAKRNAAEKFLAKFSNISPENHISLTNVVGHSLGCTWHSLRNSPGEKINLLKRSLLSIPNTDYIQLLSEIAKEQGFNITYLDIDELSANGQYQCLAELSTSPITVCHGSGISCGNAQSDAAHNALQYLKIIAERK
UniProt Q8WUA2: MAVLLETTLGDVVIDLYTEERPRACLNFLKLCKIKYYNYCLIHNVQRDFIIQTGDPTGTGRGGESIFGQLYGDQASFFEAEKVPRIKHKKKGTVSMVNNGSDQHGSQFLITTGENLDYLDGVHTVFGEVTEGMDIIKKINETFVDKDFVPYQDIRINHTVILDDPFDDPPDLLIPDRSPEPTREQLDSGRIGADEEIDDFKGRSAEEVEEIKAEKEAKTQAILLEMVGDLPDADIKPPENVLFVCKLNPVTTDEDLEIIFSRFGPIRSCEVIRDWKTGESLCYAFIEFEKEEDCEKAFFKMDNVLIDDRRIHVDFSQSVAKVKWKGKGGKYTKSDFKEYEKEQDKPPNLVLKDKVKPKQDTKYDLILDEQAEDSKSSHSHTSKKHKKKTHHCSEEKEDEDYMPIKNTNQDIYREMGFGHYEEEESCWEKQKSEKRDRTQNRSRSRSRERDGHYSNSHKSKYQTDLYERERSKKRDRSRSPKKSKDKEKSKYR
UniProt P20618: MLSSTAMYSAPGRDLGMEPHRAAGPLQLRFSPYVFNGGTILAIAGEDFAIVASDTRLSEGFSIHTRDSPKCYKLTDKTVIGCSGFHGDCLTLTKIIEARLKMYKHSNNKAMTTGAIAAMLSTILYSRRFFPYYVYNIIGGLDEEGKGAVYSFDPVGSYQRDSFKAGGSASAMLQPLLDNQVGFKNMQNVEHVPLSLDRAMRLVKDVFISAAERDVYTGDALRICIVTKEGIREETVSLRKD
UniProt O00233: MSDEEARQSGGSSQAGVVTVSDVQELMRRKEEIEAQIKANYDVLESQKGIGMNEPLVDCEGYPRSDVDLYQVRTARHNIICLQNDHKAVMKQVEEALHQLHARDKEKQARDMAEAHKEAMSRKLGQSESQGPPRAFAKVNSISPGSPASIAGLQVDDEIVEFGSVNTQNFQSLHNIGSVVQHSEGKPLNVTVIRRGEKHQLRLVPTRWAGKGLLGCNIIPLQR
UniProt Q9BY77: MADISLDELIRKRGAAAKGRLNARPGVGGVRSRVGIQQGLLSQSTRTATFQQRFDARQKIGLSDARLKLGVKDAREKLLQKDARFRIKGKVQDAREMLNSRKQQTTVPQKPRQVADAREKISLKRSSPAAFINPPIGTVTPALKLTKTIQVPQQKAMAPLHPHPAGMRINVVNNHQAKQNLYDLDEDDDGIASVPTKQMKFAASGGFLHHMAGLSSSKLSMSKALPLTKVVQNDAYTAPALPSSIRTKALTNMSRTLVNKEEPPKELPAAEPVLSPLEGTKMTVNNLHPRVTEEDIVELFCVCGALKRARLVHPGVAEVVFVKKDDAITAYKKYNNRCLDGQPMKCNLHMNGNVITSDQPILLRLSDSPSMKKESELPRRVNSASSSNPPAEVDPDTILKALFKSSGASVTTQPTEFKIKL

Compound: COc1ccc(Cn2ccc3cc(C)c(C(=O)NO)cc32)cc1
Assay: dose-dependent thermal stabilisation call (2D-TPP, DLPTP, 10% FDR) (binary (1 = stabilised)); higher = stabilised by the compound
Details: system: HL-60 intact cells; concentration range 0.04-10 µM
Experimental: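 2D thermal proteome profiling in intact HL-60 cells treated with BRD-3811 (0, 0.04, 0.29, 2, 10 uM) for 90 min at 37 C, then heated 3 min at one of 12 temperatures (42-63.9 C). Soluble protein was quantified by TMT10 MS. The value is the DLPTP call of the paper: dose-dependent thermal stabilisation over all temperatures at 10% FDR (F-test of a dose-response against a flat model); one experiment, one call per tested protein.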

Target | dose-dependent thermal stabilisation call
PRMT7 (UniProt Q9NVM4) | inactive: 0
PRDX5 (UniProt P30044) | inactive: 0
PSMD4 (UniProt P55036) | inactive: 0
PSMG1 (UniProt O95456) | inactive: 0
PTGES3 (UniProt Q15185) | inactive: 0
PRPF38B (UniProt Q5VTL8) | inactive: 0
PTPN9 (UniProt P43378) | inactive: 0
PSMB8 (UniProt P28062) | inactive: 0
PPP1R12C (UniProt Q9BZL4) | inactive: 0
PSMC6 (UniProt P62333) | inactive: 0
PPM1G (UniProt O15355) | inactive: 0
PMM2 (UniProt O15305) | inactive: 0
POLA2 (UniProt Q14181) | inactive: 0
PTPRA (UniProt P18433) | inactive: 0
PREPL (UniProt Q4J6C6) | inactive: 0
PREB (UniProt Q9HCU5) | inactive: 0
PRKD2 (UniProt Q9BZL6) | inactive: 0
POLD1 (UniProt P28340) | inactive: 0
PPFIBP1 (UniProt Q86W92) | inactive: 0
PSMA7 (UniProt O14818) | inactive: 0

Part of the list above in a different format.
Target,dose-dependent thermal stabilisation call
PMM2 (UniProt O15305),inactive: 0
POLA2 (UniProt Q14181),inactive: 0
PTPRA (UniProt P18433),inactive: 0

Remaining list, next part.

Target | dose-dependent thermal stabilisation call
PTDSS2 (UniProt Q9BVG9) | inactive: 0
PPID (UniProt Q08752) | inactive: 0
PRKACB (UniProt P22694) | inactive: 0
POLR2G (UniProt P62487) | inactive: 0
PPP4C (UniProt P60510) | inactive: 0
PTEN (UniProt P60484) | inactive: 0
PRKCB (UniProt P05771) | inactive: 0
PRKRA (UniProt O75569) | inactive: 0
PPIL4 (UniProt Q8WUA2) | inactive: 0
PRPF6 (UniProt O94906) | inactive: 0
PSMB4 (UniProt P28070) | inactive: 0
PSMB1 (UniProt P20618) | inactive: 0
PPIH (UniProt O43447) | inactive: 0
POLR2D (UniProt O15514) | inactive: 0
PSMD9 (UniProt O00233) | inactive: 0
PRPF8 (UniProt Q6P2Q9) | inactive: 0
POLDIP3 (UniProt Q9BY77) | inactive: 0
PTMS (UniProt P20962) | inactive: 0
PPFIA1 (UniProt Q13136) | inactive: 0
PRG2 (UniProt P13727) | inactive: 0
